These are yes or no findings as the source states them, for the method shown. Some results given as binding are weak or reduced against the parent protein; the word gives no strength.
molecular target: ErbB3 (UniProt P21860); experiment: MRD screen, Example 48

Chains of the proteins cited; added tags and fusions are not shown. Residues count along the entry.
UniProt P21860, residues 20-643: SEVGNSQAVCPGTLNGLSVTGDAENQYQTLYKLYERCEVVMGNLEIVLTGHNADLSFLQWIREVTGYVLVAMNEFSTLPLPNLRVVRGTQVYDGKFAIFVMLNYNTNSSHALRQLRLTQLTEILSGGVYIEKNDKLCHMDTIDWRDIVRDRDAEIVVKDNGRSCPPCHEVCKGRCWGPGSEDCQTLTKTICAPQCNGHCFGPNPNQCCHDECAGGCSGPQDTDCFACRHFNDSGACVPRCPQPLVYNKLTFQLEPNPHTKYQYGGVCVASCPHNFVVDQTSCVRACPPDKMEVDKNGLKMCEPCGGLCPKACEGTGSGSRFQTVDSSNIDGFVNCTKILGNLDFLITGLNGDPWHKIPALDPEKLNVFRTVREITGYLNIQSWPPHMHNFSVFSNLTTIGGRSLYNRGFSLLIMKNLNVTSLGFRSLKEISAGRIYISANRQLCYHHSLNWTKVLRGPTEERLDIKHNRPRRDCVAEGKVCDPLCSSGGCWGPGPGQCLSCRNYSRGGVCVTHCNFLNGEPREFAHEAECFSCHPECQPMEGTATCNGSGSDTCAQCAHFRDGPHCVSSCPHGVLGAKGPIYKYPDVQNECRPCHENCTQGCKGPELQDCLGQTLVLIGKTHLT

Binder	binding
LSEPYCPFQNPTWKEQCVARS [EGC688]	binds
YSAPDCPFVNPIWKNACIARY [EGC706]	binds
PSEPYCPFLNPIWKAECIART [EGC704]	binds
SWFFMCQIYPSLKWHVCVETL [EGC696]	binds
STEPYCPFLNPIWKDACIARH [EGC712]	binds
TSEPYCPFDNPTWKARCLAML [EGC702]	binds
QSEPYCPFLNPMWKEQCIVRI [EGC701]	binds
ASEPYCPFLNPIWKDQCIART [EGC692]	binds
ARQPYCPFLNPTWKNECMARS [EGC703]	binds
SREPYCPFLNPTWYDECIART [EGC700]	binds
LREPYCPFLNPVWKNECIART [EGC672]	binds
VIEPYCPFLNPTWKAECLARS [EGC711]	binds
SSEPYCPFQNPTWKDQCIARN [EGC693]	binds
RSEPYCPFLNPIWKEHCINRS [EGC680]	binds
ADSWCHTLYWNLLYCANQE [EGC694]	binds
KKFYMCQIYPSEKWHVCVERI [EGC675]	binds
LGEPYCPFLNPTWKAQCLYMS [EGC678]	binds
TRYSMCQVYPSLRWHVCVENL [EGC676]	binds
WRDPYCPFLNPIWKEQCIARY [EGC715]	binds

Binder	binding
SSEPYCPFLNPIWKNECLARQ [EGC679]	binds
ITDTYCPFQNPIWKAECIART [EGC673]	binds
ADSWCHTLFWQLQHCVWQE [EGC707]	binds
PDSWCHTLYWSLLHCARQE [EGC686]	binds
STFYMCKVYPSQRWHVCVDTL [EGC698]	binds
FNFFMCQVYPSEKWHICVKSL [EGC674]	binds
LRYYICQIYPSEKYHVCVDTL [EGC710]	binds
GGDPYCPFLNPTWKAECIART [EGC690]	binds
LNFSMCQVYPSYKWHVCVGTL [EGC708]	binds
SNEPYCPFLNPSWKDACLQRT [EGC682]	binds
ADSWCHTLFWNLKHCLIQE [EGC689]	binds
HSQPYCPFQNPTWYEQCIART [EGC681]	binds
RSEPYCPFLNPTWKDQCMART [EGC716]	binds
MEFFMCQVYPSEKWHVCVAKL [EGC709]	binds
LPFFMCQVYPSKSWHVCVETS [EGC687]	binds
VREPYCPFLNPIWKDQCIART [EGC691]	binds
IAILTALSLTLSGRTSASSE [EGC705]	binds
SDFFMCQVYPSQKWHVCVKSL [EGC684]	binds
LSDVYCPFVNPTWKAECIARS [EGC683]	binds

Other lines, results leading:

binding	Binder
binds	PSEPYCPFVNPTWLDECIARS [EGC724]
binds	SKFFMCQVYPSKKWHVCVEAL [EGC718]
binds	DQVRCPFQNPVWWSHCMYLL [EGC759]
binds	FKFFMCQTYPSEKWHVCVEKL [EGC721]
binds	YEVQCPFQNPIWWKHCMDLI [EGC789]
binds	PISPYCPFLNPIWYEECIARS [EGC726]
binds	YQVTCPFLNPPWWSHCMYLL [EGC771]
binds	ADSWCHTLYWQLQHCLSQE [EGC755]
binds	VGEPYCPFMNPIWKEQCILRS [EGC727]
binds	IKFFMCQVYPSELWHVCVQKQ [EGC719]
binds	TTFFMCQLYPSGNWHVCTETL [EGC720]
binds	DQVRCPFQNPVWWSHCMYLL [EGC754]
binds	ASEPYCPFLNPIWYEQCINRT [EGC725]
binds	DQVRCPFQNPVWWSHCMYLL [EGC770]
binds	SEPYCPFLNPTWKSQCIART [EGC783]
binds	DQVRCPFQNPVWWSHCMYLL [EGC772]
binds	SSEPYCPFLNPLWHEQCLARI [EGC722]
binds	DQVRCPFQNPVWWSHCMYLL [EGC763]
binds	TDSWCHTLYWQLHHCAILE [EGC765]
binds	YQVTCPFFNPLWWSHCMYLL [EGC777]
binds	VIDPYCPFLNPIWKEQCQVRT [EGC717]
binds	HRAPCFSCTACRQPCFSLT [EGC776]
binds	AREPYCPFLNPIWKAECVARY [EGC723]
binds	DQVRCPFQNPVWWSHCMYLL [EGC746]
binds	YTKHCQRLPTYKICNLFM [EGC752]
binds	DQVRCPFQNPVWWSHCMYLL [EGC764]
binds	DQVRCPFQNPVWWSHCMYLL [EGC737]
binds	DQVRCPFQNPVWWSHCMYLL [EGC745]
binds	ADSWCHTLYWQLLHCVNQE [EGC729]
binds	ADSWCHTLYWQLLHCVSQE [EGC736]
